This is one part of the list.
Legend:
Assay in all cases: log2 fold change, soluble protein after heating vs DMSO (PISA); higher = thermal stabilisation; K562 lysate, 10 uM; active = over 0.2 and 3.5 SD of the protein, either way, in both replicates (recomputed)
Tubastatin A = compound: CN1CCc2c(c3ccccc3n2Cc2ccc(C(=O)NO)cc2)C1 [Tubastatin A]
Method in brief: (§1)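 Soluble protein was defined as the supernatant remaining after 21,000xg for 90 min, following pooling of heated aliquots and adjustment to 0.5% NP-40 at 4°C. Before that, crude K562 extract at 1 mg/mL protein in PBS pH 7.4 with 1 mM MgCl2 was treated with 10 μM compound for 30 min and heated for 3 min across 48°C-58°C. Quantification used TMTpro 16plex LC-MS/MS with channel sums equalised, and values are log-two fold changes in thermal stability relative to solvent controls from duplicates.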

Sequences of proteins named here, by UniProt entry; tags and fusion partners are left off. A change or cut given only in a name is not applied to a line headed by its entry.
UniProt Q9UPS8: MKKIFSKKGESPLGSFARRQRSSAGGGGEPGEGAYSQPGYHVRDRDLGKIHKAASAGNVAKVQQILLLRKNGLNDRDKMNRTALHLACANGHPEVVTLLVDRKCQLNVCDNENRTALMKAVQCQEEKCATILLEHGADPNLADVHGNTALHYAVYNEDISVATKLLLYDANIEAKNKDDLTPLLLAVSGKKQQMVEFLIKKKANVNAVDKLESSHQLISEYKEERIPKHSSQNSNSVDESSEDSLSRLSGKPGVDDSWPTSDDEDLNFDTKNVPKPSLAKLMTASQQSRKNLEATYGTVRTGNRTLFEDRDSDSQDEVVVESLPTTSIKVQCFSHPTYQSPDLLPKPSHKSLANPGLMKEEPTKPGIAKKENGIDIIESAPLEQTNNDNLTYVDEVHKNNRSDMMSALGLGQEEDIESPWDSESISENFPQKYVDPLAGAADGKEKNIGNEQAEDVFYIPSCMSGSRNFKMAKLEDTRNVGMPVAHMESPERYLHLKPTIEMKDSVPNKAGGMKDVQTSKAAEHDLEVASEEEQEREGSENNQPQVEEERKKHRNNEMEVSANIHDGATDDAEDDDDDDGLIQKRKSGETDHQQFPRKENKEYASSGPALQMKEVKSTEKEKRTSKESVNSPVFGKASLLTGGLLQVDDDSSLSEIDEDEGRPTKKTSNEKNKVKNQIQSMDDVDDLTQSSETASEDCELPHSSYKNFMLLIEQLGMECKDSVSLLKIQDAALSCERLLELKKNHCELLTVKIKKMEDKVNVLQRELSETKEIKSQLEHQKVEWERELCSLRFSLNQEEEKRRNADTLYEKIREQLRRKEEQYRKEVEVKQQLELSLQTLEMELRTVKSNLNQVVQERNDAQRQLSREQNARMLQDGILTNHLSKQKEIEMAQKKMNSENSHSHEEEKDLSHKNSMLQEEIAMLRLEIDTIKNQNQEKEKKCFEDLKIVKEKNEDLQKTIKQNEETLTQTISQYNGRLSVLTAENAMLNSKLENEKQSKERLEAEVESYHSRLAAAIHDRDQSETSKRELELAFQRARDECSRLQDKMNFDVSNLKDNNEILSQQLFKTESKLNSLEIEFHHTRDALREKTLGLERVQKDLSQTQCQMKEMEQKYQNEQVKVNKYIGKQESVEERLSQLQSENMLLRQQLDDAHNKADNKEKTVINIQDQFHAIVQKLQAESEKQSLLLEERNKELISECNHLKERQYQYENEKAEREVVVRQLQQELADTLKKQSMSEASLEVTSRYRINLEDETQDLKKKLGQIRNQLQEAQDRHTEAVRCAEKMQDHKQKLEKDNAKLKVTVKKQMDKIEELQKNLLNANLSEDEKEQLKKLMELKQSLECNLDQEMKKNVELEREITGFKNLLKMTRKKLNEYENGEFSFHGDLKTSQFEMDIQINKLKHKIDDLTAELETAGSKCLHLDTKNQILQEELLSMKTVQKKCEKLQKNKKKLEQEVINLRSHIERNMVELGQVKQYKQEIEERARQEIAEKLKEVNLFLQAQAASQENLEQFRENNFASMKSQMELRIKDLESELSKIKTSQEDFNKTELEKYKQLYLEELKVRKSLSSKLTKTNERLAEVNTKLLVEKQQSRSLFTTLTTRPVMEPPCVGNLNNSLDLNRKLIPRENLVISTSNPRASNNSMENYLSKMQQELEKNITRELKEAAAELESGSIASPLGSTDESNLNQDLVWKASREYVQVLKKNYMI
UniProt Q6P6B7: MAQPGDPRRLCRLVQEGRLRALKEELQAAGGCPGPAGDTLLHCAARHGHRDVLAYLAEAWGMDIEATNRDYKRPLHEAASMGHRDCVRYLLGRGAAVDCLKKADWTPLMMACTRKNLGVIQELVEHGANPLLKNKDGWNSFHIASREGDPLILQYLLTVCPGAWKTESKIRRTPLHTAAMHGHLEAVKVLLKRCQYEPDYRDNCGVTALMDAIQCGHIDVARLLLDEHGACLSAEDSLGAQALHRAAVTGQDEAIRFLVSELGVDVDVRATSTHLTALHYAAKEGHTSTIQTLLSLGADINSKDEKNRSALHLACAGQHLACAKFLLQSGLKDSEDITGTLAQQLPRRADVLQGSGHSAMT
UniProt Q8N7Z5: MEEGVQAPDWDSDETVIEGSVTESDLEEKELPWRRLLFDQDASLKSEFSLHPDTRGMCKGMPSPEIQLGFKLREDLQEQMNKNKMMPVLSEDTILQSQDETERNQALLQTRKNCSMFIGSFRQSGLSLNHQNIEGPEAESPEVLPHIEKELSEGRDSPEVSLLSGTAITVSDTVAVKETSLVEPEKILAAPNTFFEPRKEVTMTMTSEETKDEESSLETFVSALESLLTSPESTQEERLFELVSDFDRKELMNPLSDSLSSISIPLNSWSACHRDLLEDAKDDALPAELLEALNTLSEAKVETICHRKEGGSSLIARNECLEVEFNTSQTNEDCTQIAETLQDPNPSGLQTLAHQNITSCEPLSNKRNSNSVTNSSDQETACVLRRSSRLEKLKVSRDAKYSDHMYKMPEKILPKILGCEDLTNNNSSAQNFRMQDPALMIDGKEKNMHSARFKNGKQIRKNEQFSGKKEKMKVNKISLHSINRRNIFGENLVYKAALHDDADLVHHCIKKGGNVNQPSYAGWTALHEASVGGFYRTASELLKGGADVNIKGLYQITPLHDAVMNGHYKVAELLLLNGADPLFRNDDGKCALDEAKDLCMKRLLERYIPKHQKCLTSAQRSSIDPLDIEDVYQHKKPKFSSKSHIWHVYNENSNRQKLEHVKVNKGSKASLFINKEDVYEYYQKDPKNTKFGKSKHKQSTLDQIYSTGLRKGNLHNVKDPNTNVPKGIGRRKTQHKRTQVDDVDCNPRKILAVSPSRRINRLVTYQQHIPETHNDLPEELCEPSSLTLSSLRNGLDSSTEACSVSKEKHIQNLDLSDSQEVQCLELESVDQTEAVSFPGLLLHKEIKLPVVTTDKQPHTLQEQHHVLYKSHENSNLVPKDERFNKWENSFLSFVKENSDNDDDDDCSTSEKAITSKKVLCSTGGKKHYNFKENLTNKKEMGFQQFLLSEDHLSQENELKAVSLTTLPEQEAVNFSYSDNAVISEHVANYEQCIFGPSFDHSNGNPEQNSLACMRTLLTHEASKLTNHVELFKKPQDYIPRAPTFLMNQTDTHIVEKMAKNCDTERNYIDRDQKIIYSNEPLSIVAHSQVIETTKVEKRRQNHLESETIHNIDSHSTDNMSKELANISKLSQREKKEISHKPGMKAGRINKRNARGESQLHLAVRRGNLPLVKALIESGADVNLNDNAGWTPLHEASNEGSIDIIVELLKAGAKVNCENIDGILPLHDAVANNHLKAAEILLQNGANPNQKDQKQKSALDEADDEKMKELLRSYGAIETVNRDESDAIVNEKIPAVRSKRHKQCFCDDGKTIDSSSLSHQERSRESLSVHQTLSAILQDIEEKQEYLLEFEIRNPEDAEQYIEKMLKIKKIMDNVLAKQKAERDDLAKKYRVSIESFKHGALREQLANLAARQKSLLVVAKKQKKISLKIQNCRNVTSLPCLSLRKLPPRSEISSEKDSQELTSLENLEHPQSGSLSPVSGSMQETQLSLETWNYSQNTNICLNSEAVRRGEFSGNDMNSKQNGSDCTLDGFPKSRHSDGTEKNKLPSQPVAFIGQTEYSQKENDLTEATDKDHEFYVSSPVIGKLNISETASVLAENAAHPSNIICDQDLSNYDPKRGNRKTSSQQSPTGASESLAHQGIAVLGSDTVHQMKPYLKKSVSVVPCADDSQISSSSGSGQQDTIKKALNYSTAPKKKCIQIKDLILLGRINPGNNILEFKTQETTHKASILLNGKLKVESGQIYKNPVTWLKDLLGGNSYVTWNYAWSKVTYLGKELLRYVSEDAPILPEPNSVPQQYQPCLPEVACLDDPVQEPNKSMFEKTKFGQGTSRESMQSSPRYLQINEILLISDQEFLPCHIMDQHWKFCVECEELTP
UniProt A1A5B4: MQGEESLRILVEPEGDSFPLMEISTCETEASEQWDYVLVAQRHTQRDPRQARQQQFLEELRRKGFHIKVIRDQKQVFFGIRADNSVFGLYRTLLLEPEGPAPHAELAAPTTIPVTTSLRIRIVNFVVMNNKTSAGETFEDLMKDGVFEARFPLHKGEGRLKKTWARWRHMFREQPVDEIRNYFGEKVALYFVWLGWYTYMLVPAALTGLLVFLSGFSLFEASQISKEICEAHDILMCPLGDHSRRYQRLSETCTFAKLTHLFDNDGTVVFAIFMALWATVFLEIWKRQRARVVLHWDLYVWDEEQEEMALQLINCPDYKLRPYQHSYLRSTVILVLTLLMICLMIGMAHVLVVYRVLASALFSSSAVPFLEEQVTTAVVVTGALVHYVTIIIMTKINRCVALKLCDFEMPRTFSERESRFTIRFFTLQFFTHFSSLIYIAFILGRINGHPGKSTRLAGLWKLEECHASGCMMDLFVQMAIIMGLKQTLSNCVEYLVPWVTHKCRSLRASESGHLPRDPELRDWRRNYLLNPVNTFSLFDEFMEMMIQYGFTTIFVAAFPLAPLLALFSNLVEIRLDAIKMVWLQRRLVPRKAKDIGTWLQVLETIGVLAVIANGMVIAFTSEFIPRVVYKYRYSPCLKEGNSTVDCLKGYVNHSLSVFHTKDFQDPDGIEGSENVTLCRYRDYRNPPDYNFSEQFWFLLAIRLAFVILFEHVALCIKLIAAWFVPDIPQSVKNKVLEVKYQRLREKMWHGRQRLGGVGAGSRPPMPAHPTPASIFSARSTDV
UniProt Q8N6S4: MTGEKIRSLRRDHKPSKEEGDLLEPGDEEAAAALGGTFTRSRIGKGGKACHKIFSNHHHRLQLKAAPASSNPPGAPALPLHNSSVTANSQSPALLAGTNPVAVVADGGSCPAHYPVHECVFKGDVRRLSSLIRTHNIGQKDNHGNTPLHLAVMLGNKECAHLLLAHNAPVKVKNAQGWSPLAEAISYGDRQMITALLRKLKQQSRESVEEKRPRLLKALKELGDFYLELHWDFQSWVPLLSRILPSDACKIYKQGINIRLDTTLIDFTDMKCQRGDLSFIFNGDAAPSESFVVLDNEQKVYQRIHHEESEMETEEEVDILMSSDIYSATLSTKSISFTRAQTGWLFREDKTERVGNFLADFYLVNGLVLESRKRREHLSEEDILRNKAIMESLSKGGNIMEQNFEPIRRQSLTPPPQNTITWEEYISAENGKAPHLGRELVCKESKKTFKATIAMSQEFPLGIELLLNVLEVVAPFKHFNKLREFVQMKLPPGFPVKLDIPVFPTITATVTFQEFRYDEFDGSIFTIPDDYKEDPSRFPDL
UniProt Q9HCJ1: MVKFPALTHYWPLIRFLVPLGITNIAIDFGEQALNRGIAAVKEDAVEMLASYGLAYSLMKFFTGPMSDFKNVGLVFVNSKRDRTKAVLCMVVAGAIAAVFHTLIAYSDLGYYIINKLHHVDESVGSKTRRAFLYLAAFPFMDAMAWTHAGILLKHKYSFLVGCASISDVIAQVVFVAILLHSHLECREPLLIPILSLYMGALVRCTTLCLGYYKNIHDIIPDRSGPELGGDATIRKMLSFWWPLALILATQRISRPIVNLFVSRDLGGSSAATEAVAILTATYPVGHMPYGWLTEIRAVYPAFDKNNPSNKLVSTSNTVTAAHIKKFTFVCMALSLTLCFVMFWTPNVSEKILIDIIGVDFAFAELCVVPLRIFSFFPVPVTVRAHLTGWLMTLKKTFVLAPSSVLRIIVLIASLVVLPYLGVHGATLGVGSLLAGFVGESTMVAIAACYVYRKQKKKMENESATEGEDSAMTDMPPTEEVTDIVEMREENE
UniProt P54886: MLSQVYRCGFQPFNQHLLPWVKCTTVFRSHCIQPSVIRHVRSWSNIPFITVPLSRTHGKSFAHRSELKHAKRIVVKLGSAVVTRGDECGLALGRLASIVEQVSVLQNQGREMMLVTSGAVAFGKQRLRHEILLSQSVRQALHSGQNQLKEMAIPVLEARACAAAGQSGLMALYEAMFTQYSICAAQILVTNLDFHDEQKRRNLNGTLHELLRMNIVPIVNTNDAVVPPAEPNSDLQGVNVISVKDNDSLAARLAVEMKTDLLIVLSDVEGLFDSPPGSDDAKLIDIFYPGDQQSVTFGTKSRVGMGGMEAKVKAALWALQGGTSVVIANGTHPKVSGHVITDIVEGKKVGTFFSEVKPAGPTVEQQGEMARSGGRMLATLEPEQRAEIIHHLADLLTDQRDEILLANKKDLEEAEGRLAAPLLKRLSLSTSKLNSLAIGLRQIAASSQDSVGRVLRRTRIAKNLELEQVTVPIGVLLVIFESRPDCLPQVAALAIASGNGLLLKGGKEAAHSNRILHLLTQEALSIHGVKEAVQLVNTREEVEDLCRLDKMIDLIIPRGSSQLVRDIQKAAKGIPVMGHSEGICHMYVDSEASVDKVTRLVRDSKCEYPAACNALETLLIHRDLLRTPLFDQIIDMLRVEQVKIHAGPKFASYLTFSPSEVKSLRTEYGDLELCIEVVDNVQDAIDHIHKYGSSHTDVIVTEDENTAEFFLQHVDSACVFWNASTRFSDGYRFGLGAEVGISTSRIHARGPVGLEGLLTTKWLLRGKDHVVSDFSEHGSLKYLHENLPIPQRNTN

[1] = compound: CNC(=O)C1=CC=CC=C1NC2=NC(=NC=C2Cl)NC3=C(C=C(C=C3)N4CCOCC4)OC
Method in brief: as §1

defactinib = compound: CNC(=O)c1ccc(Nc2ncc(C(F)(F)F)c(NCc3nccnc3N(C)S(C)(=O)=O)n2)cc1 [defactinib]
Method in brief: as §1

encorafenib = compound: COC(=O)N[C@@H](C)CNc1nccc(-c2cn(C(C)C)nc2-c2cc(Cl)cc(NS(C)(=O)=O)c2F)n1 [encorafenib]
Method in brief: as §1

[2] = compound: COC(=O)[C@H](CCSC)NC(=O)C1=C(C=C(C=C1)NC[C@H](CS)N)C2=CC=CC=C2
Method in brief: as §1

alisertib = compound: COc1cc(Nc2ncc3c(n2)-c2ccc(Cl)cc2C(c2c(F)cccc2OC)=NC3)ccc1C(=O)O [alisertib]
Method in brief: as §1

[3] = compound: COc1cc2nc(-c3cc(F)ccc3O)nc(N[C@@H]3CNC[C@H]3C(C)(C)O)c2cc1OC
Method in brief: as §1

gefitinib = compound: COc1cc2ncnc(Nc3ccc(F)c(Cl)c3)c2cc1OCCCN1CCOCC1 [gefitinib]
Method in brief: as §1

[4] = compound: CNc1nc(-c2ccc3c(N)n[nH]c3c2)cc(N2C[C@@H](C(=O)NC3CCCCC3)CC[C@H]2C)n1
Method in brief: as §1

alvocidib = compound: CN1CC[C@H](c2c(O)cc(O)c3c(=O)cc(-c4ccccc4Cl)oc23)[C@H](O)C1 [alvocidib]
Method in brief: as §1

Measured: log2 fold change

ANKRD26 (UniProt Q9UPS8)
inactive: Tubastatin A -0.024 | [1] 0.503 | defactinib -0.14 | encorafenib -0.017 | [2] 0.147 | alisertib 0.233 | [3] 0.118 | gefitinib -0.06

ANKHD1 (UniProt D6RHC4)
inactive: Tubastatin A 0.197 | [1] -0.066 | [4] 0.021 | [3] 0.085

AP1B1 isoform 3 (UniProt Q10567)
inactive: Tubastatin A -0.079

ANKRD16 (UniProt Q6P6B7)
inactive: alvocidib -0.118 | [4] 0.023 | encorafenib -0.111 | [2] 0.186 | alisertib -0.207 | [3] 0.079 | gefitinib 0.025

ANKRD31 (UniProt Q8N7Z5)
inactive: [4] 0.304 | encorafenib 0.098 | [2] 0.027 | [3] -0.19

AMIGO2 (UniProt Q86SJ2)
inactive: alvocidib -0.12 | defactinib 0.013 | alisertib 0.12 | gefitinib 0.089

ANO9 (UniProt A1A5B4)
inactive: Tubastatin A 0.058 | [4] 0.202

AP2M1 (UniProt C9JTK4)
inactive: Tubastatin A 0.161

AMZ2 (UniProt Q86W34)
inactive: Tubastatin A 0.001 | [1] -0.034 | defactinib 0.004 | [4] 0.071 | encorafenib 0.117 | [2] -0.024 | alisertib -0.007 | [3] 0.016 | gefitinib -0.003

AMN1 (UniProt Q8IY45)
inactive: alvocidib 0.134 | [3] -0.12

ANKRD13C (UniProt Q8N6S4)
inactive: Tubastatin A 0.041

ANKH (UniProt Q9HCJ1)
inactive: Tubastatin A 0.321 | [1] -0.015 | defactinib -0.116 | encorafenib -0.034 | [2] -0.088 | alisertib -0.198 | [3] -0.034 | gefitinib 0.34

ANP32E isoform 3 (UniProt Q9BTT0)
inactive: alvocidib -0.27 | defactinib -0.141 | encorafenib 0.036 | [2] -0.015

ANXA6 (UniProt E5RK69)
inactive: [1] -0.051 | [4] 0.023 | encorafenib -0.052 | [2] -0.06 | alisertib 0.024 | [3] 0.069 | gefitinib 0.058

Five neighbouring entries from above, for reference:
AP2M1 (UniProt C9JTK4)
inactive: Tubastatin A 0.161

AMZ2 (UniProt Q86W34)
inactive: Tubastatin A 0.001 | [1] -0.034 | defactinib 0.004 | [4] 0.071 | encorafenib 0.117 | [2] -0.024 | alisertib -0.007 | [3] 0.016 | gefitinib -0.003

AMN1 (UniProt Q8IY45)
inactive: alvocidib 0.134 | [3] -0.12

ANKRD13C (UniProt Q8N6S4)
inactive: Tubastatin A 0.041

ANKH (UniProt Q9HCJ1)
inactive: Tubastatin A 0.321 | [1] -0.015 | defactinib -0.116 | encorafenib -0.034 | [2] -0.088 | alisertib -0.198 | [3] -0.034 | gefitinib 0.34

Going on with the list.

ALPK1 (UniProt Q96QP1)
inactive: [1] -0.114

AP1G1 (UniProt H3BV30)
inactive: [3] 0.009

ALDH18A1 isoform 2 (UniProt P54886)
inactive: Tubastatin A -0.06 | defactinib 0.016 | [4] -0.139

AKT1S1 (UniProt M0R2V8)
inactive: alisertib -0.13 | [3] 0.141 | gefitinib -0.177
